Values of other authors, collected in patent publication US8158161B2, “Methods and pharmaceutical compositions useful for treating psoriasis” (S.U.L.V.E. Ltd., priority 2005, dated 2012).
Some results were stated once for a whole list of compounds, not compound by compound.

Tested on: K562 cells
Settings: Leoni 1997, read-out: IC50 in inhibiting the growth of K562 cells

Compound: C=CCN=C=S [2-Propenyl-isothiocyanate]
- IC50: < 100 nM
